This passage reports binding results from US20170008959A1.

Protein sequences, listed by entry. Tags and fused reporters are not part of them. Residues count along the entry.
UniProt P05067, residues 672-713: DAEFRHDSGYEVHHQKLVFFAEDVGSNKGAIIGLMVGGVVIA

This assay addresses Amyloid Aβ-1-42 oligomer (globulomer), biotinylated (UniProt P05067). As to the kind of experiment: HTRF competition: peptide preincubated with Aβ 1/5 biotin globulomer 800 nM, then sRAGE 1-331 added; blocked partner sRAGE.

These are yes or no findings as the source states them, for the method shown. Some binding calls cover weakened binding; strength is not graded here.

LPRHRALRTAPIQPRVWEPVPLEEVQLVVE [AGER-CDP peptide 7]: the binding result is listed as “binds”.
